PubChem BioAssay AID504786 | Drosophila RNAi Screening Center – 2011
Assay: 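Fly genes required for HIF-dependent transcription when hypoxia is mimicked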 (primary screen). Cell system: Drosophila S2 cells with a stable HIF luciferase reporter. Reagents: long dsRNA against Drosophila genes, about 0.2 µg dsRNA per well of a 384-well plate. Timing: three days of knock-down, then 20 h of DFO before reading. Conditions: desferrioxamine (DFO) at 100 µM, an iron chelator that mimics hypoxia, for 20 h. Detection: 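Firefly luciferase driven by the mouse ldh-a hypoxia-response element, measured after 20 h of 100 µM DFO; z-scores per plate, higher means more signal lost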. Direction: z-score: higher = stronger loss of HIF reporter signal.
In all, the deposit lists about 21,000 reagents; this is a random part of those with a known target gene and a result. 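Primary screen; positive scores mean lost reporter signal, so the sign may be inverted from the usual convention.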 Reagents against one gene are numbered here. Not all columns of the deposit are shown. No sequences are given here.

target	dsRNA no.	z-score, replicate 1
CG31087	1	-0.3
Pgant9	1	-0.8
Pgant9	2	-0.3
Pgant9	3	-0.3
Pgant9	4	-0.4
Pgant9	5	0
Pgant9	6	-0.1
CG4743	1	-0.2
spz6	1	0.1
CtsF	1	-0.3
CtsF	2	-0.4
CtsF	3	1.3
CG3906	1	-0.2
CG3163	1	-0.2
Tnpo-SR	1	4.4
eloF	1	-0.3
CG33286	1	-0.3
CstF50	1	-0.3
CG32437	1	-0.3
vers	1	1.6
RhoGAP93B	1	-0.4
SmD1	1	2.7
Ankle2	1	-0.4
Ankle2	2	-0.3
CG31343	1	-0.1
CG5199	1	0.2
AP-1mu	1	-0.3
cta	1	-0.2
CG14491	1	-0.3
CG15097	1	5
Vha13	1	0.4
CG1428	1	-0.4
CG12289	1	-0.2
CG7369	1	-0.3
CG18536	1	-0.2
Hasp	1	-0.4
Srp9	1	-0.6
CG5866	1	-0.2
RagA-B	1	0.1
CG14322	1	-0.9
ex	1	-0.5
koi	1	-0.3
CG11858	1	-0.5
Dna2	1	-0.3
glob3	1	0.1
Ccdc114	1	-0.3
Cyp6v1	1	-0.4
CG5543	1	-0.3
CG32052	1	-0.1
CG14423	1	-0.2
CG15005	1	-0.3
CG14892	1	0.3
ATPsynCF6L	1	-0.3
SCAR	1	-0.2
CG32718	1	-0.3
CG4951	1	-0.3

A stretch from the list above, as a working copy:
target	dsRNA no.	z-score, replicate 1
koi	1	-0.3
CG11858	1	-0.5
Dna2	1	-0.3
glob3	1	0.1
Ccdc114	1	-0.3
Cyp6v1	1	-0.4
CG5543	1	-0.3
